For two substances, binding results are on record in article PMC7954848.

Protein sequences, listed by entry. Tags and fused reporters are not part of them.
UniProt Q9UBF6: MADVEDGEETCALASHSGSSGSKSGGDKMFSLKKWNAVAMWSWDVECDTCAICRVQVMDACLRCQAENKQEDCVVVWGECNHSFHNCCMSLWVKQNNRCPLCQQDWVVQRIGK
UniProt Q93034: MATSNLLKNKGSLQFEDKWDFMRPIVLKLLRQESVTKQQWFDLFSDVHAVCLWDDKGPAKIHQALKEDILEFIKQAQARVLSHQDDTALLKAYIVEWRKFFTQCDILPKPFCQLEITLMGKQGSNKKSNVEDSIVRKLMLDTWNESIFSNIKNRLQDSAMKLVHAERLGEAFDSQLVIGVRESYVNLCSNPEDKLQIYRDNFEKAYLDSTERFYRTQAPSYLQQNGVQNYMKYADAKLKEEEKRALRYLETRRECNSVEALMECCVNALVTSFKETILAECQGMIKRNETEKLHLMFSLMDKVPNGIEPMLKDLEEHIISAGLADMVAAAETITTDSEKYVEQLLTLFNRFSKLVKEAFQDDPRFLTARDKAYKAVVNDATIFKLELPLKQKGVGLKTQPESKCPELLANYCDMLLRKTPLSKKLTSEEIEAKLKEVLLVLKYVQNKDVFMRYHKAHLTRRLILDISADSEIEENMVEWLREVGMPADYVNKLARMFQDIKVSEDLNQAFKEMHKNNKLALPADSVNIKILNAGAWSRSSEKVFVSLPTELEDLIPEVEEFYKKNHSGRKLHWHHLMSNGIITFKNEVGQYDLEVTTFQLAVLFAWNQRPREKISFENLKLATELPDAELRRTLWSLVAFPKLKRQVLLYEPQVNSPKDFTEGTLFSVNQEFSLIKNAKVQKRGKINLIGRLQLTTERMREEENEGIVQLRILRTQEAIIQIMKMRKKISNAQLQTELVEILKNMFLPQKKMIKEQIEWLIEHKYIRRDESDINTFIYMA

Experiment [1] deals with T1, PRDX1 (human (endogenous in HCT116 and DLD1)) (UniProt Q06830).
T1 sequence: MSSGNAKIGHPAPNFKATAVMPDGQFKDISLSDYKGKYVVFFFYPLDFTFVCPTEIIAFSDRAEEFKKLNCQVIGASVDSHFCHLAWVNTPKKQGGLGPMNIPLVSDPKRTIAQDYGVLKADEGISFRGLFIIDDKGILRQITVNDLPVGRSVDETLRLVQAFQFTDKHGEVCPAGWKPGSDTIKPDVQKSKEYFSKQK
Nature of the experiment: co-IP; anti-PRDX1 immunoprecipitate of CRC cells (Figs. S7 and S8); cell line not given.

Experiment [2] concerns the target T2, Nedd8-conjugating enzyme UBE2F (human (endogenous in HCT116 and DLD1)) (UniProt Q969M7).
T2 sequence: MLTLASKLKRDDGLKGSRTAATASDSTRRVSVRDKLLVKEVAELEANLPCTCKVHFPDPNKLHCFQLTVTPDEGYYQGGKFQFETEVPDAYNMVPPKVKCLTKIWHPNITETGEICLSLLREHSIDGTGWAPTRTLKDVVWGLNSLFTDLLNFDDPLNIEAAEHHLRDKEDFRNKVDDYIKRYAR
Nature of the experiment: co-IP; lysates of HCT116 cells transfected with sh-PRDX1 or control, precipitated with anti-UBE2F or anti-CUL5 antibody, then Protein A + G Agarose; Western blot. (A western blot detects proteins with antibodies after separation by electrophoresis.)

Experiment [3] has as its target T1, PRDX1 (human (endogenous in HCT116 and DLD1)). Nature of the experiment: co-IP; HCT116 and DLD1 lysates (mild RIPA lysis buffer) precipitated with anti-PRDX1 or IgG control antibody overnight, then Protein A + G Agarose at 4 °C for 4 h; endogenous proteins detected by Western blot.

Results are given in words; binding and its absence hold for the method and conditions named. In cells and extracts the contact can be indirect. Some binding calls cover weakened binding; strength is not graded here.

In the case of SAG (RNF7) (from UniProt Q9UBF6 1-113), the binding result in experiment [1] is given as “binds”.

Turning to cullin-5 (from UniProt Q93034 1-780), the binding entry in experiment [2] and in experiment [3] was “binds” throughout.
